Screening data, single-dose tests

By UniProt entry, the sequences of proteins in these tests, tags left out. Residues count along the entry.
UniProt P9WNZ1, whole entry: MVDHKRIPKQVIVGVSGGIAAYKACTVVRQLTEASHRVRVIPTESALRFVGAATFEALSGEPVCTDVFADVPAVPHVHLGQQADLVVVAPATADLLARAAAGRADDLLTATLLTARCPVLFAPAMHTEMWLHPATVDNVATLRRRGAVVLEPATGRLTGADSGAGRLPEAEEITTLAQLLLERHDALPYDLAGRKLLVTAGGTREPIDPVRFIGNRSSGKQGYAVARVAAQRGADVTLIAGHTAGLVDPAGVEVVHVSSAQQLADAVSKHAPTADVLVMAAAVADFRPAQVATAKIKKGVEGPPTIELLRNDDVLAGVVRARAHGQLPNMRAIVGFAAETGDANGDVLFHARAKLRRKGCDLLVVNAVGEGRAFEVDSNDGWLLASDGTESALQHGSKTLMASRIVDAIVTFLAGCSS
UniProt Q8IDJ8, 1-583: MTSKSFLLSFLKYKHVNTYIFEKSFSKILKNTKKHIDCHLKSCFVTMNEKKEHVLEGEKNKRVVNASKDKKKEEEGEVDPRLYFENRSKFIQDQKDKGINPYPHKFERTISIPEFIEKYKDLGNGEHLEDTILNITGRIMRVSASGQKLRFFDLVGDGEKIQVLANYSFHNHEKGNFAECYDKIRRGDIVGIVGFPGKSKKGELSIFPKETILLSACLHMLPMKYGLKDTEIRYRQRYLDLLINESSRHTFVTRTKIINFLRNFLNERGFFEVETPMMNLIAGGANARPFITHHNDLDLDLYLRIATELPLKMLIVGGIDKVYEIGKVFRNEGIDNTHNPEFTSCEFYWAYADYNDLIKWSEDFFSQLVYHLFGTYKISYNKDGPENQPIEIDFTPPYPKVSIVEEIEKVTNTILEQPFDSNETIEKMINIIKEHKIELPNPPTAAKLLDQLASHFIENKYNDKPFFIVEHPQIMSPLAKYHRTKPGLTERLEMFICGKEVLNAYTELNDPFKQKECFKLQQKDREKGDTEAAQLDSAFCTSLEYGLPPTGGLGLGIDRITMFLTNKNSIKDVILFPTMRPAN
UniProt A4I591, 1-473: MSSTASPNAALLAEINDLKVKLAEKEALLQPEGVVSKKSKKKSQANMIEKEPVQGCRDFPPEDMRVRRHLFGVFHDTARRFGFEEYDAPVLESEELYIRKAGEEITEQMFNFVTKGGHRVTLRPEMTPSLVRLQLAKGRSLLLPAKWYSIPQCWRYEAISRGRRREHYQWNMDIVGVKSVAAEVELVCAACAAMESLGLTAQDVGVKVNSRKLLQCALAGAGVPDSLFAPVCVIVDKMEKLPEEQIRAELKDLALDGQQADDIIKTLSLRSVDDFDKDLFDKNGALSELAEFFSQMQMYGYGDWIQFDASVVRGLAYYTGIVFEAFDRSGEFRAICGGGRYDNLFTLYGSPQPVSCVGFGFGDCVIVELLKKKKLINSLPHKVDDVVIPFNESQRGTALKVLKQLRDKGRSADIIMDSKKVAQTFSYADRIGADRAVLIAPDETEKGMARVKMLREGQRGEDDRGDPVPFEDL

Measurements from “University of Dundee, Small-Polar-MMV Screening Library” (2021), ChEMBL document CHEMBL3988442.

CoaBC: 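Enzyme assay of CoaBC with a phosphate dye (Biomol Green) read at 650 nm. Target: Coenzyme A biosynthesis protein CoaBC, Mycobacterium tuberculosis (UniProt P9WNZ1). Concentration: 30 µM. Direction is inferred from only a few compounds that gave an IC50; most scored high, so higher reads as stronger inhibition. Most strong results did not repeat in a second test. Size under these conditions: about 67,000 compounds, about 40 of them at 50% or above in at least one test.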
PfKRS1: 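Enzyme assay of the cytosolic lysyl-tRNA synthetase in 384-well plates, read by luminescence. Target: Lysine-tRNA ligase, Plasmodium falciparum 3D7 (UniProt Q8IDJ8). Concentration: 30 µM. Higher reads as stronger inhibition, judged from the few compounds that gave an IC50. About 69,000 compounds were tested under these conditions; 0.071% (about 49) showed 50% or more at least once.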
LiHisRS: 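Histidine-tRNA ligase, Leishmania infantum (UniProt A4I591). Enzyme assay of histidyl-tRNA synthetase; the read-out is not stated. Compounds at 30 µM. Direction is inferred from retests: higher values go with stronger inhibition. The assay is labelled LdHisRS but filed under L. infantum. Of about 69,000 compounds tested this way, about 410 (0.6%) reached 50% or more in at least one test.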

The filed quantity is “Percent Effect” (%).
The controls that fix the scale are not given in the record; negative values are as filed.
This is an unselected part of the compounds tested.
A dash means the value is not listed here; it may have been measured.

Compound | CoaBC | PfKRS1 | LiHisRS
COCCN(C)C(=O)c1nc2c(s1)CCCN2C | 6.318 | 5.601 | 24.56
Cc1ccc(C(=O)NS(=O)(=O)c2cc(Cl)ccc2Cl)c(=O)[nH]1 | 8.094 | 2.79 | 18.46
Cc1ncc2c(n1)CN(Cc1nnc(-c3ccccc3)o1)CC2 | -3.611 | 0.6605 | 23.85
O=C(NCCOc1ncc(Cl)cc1Cl)NCc1ccncc1 | 2.2 | 1.416 | 38.71
CC(=O)N1C[C@@H]2CC[C@H](C1)N(C(=O)CCc1n[nH]c3c1CCCC3)C2 | -3.023 | 4.721 | 17.74
COCCOc1cccc(C(=O)N2CCCC(n3cccn3)C2)c1 (stereo not drawn) | -0.2635 | -5.536 | -3.125
Cc1nnc(SC2CCN(c3sccc3C#N)C2=O)[nH]1 (stereo not drawn) | 5.124 | 1.318 | 12.24
Cc1nnc([C@H]2C[C@H]3OCC[C@H]3N(S(=O)(=O)N(C)C)C2)o1 | - | 7.772 | 18.8
CCN1CCN(c2ncnc3c2CCN(C(=O)C2CC2)C3)CC1 | 5.283 | -4.086 | 10.85
COc1c(CNCc2ccnc(N3CCOCC3)c2)c(C)nn1C | 6.743 | 0.9082 | 13.04
Fc1ccc(N2CCOC3(COCCN(c4ncccn4)C3)C2)cc1 (stereo not drawn) | 1.854 | 2.863 | 17
CSC(C)C(=O)N(C)CCCc1cc(-c2ccccc2)no1 (stereo not drawn) | 4.11 | -1.537 | 9.174
CCNC(=O)c1ccc(NC(=O)N(C)Cc2cc(C)on2)cc1 | -10.15 | 7.984 | 11.67
c1csc(CN2C[C@@H](n3cccn3)[C@H]3OCCC[C@H]32)c1 | 7.917 | -1.07 | 17.95
CS(=O)(=O)CCOCCNc1ccc(Br)cn1 | 1.266 | 5.657 | 16.88
CC(C)C(C)(C#N)NC(=O)Cn1cc(I)cn1 (stereo not drawn) | 9.504 | 6.211 | -1.333
CN(Cc1ccoc1)C(=O)C1(Oc2ccc(Cl)cc2)CCNCC1 | -26.86 | 10.96 | 10.67
COc1ccccc1OC(C)CNC(=O)c1cnc[nH]1 (stereo not drawn) | -1.129 | -0.8099 | 1.205
CCCc1ccc(S(=O)(=O)NC(=O)CCC2CCCO2)cc1 (stereo not drawn) | 3.609 | 2.096 | 9.649
Cn1cc(CN2CCc3onc(COCC4CC4)c3C2)cn1 | 4.01 | -0.7628 | 2.564
Cc1cc(N2CCCCC2Cn2nc(C)cc2C)n2ncnc2n1 (stereo not drawn) | - | 0.7454 | 19.17
CNC(=O)c1cc(C2CCCNC2)n[nH]1 (stereo not drawn) | 0 | 0.122 | -2.837
Cc1cc(CN(C)C(=O)C2CCC(=O)N(CC3CCCCC3)C2)n[nH]1 (stereo not drawn) | -0.2571 | 2.558 | 0
Cc1cc(C(F)(F)F)nc(CNC(=O)CCCN2CCCCC2)n1 | 1.489 | 3.499 | 4.255
CC(C)Sc1ncccc1C(=O)NCc1cccc(N(C)C)c1 | -8.075 | -0.3306 | 14.04
N#Cc1c(N)nc2c(c1-c1c[nH]nc1C1CCCCC1)CNCC2 | -0.1258 | -0.7911 | 24.78
COCC(=O)Nc1ccc(Sc2nncn2C)c(Cl)c1 | 14.73 | -2.935 | 25.71
O=C(c1ccc2ccccc2c1)C1CCCN(C(=O)Cn2cnnn2)C1 (stereo not drawn) | 0.8696 | -4.262 | 4.712
O=C1CC[C@]2(CC[C@@H](NC3CCOC3)CC2)N1Cc1ccncc1 (stereo partly drawn) | 2.036 | 5.254 | 19.42
CCOc1ccc(CN2CCOCC2c2[nH]ncc2C)cc1CO (stereo not drawn) | 15.74 | 0.3701 | 8.392
NC(=O)CN1CCCC1c1csc(Nc2cnccn2)n1 (stereo not drawn) | -4.126 | 0.7556 | 10.14
Cc1[nH]nc(CCC(=O)NCC2COc3ccccc3C2)c1C (stereo not drawn) | -1.829 | 1.882 | 13.19
Cc1cc(CNC(=O)C2CCCCN2C(=O)OC(C)(C)C)no1 (stereo not drawn) | 4.846 | 4.146 | 22.64
O=C(Nc1cccc(N2CCCC2)c1)C1CCCN1c1nccs1 (stereo not drawn) | 2.591 | -0.3985 | -6.383
CN(Cc1cccc(F)c1)S(=O)(=O)N1CCOCC1 | 8.772 | -1.196 | 20
Cc1csc(N2CCN(C(=O)CCn3cccn3)CC2)n1 | 1.575 | 0.06577 | 13.56
CC1(C(=O)N2CCOCC2)CNCCO1 (stereo not drawn) | 6.22 | -1.58 | -12.95
Cc1cc(NCCO)nc(N2CCN(C)CC2)c1C#N | -0.8783 | 4.259 | 10.17
OC1CCN(c2cnnc3ccccc23)CC1 | 7.243 | -1.42 | 16.81
O=C1CC[C@H]2CN(Cc3ncc[nH]3)CC[C@H]2N1CC1CCNCC1 | -9.917 | 8.984 | 4
Cc1nc(C(C)NCc2cc(O)c3cccc(F)c3n2)cs1 (stereo not drawn) | 7.589 | 2.534 | 5.208
O=C(CN1C(=O)CCNC1=O)N1CCC2(CCc3ccccc32)CC1 | 7.851 | -1.1 | 20
CN(CCCc1cnn(C)c1)c1nccc(-c2cc(C(=O)O)ccn2)n1 | 6.667 | 1.653 | 2.797
Cc1cccc(OCCNC(=O)CN2CCCC2Cn2cncn2)c1 (stereo not drawn) | 6.003 | 4.086 | 20.54
O=C(NCCNc1cnccn1)N1CCN(c2nccs2)CC1 | 7.329 | -0.248 | 8.772
Cc1nnsc1CNC(=O)CSCc1ccccc1Cl | 0.9709 | -1.572 | 12.05
CCc1cc(C)c(C(=O)N2CCCC2CC(=O)c2cnn(C)c2)o1 (stereo not drawn) | 1.567 | 0.9678 | 0
CC(C)CS(=O)(=O)N1CCC2(CN(c3cccc(F)c3)C(=O)CN2C)C1 (stereo not drawn) | -2.03 | -5.712 | 0
O=C(c1ccco1)N1CCOCC2(CCN(C3CCOCC3)C2)C1 (stereo not drawn) | 4.441 | 0.2915 | 1.942
Cc1nccn1C1CCCN(C(=O)c2ccc3c(c2)nnn3C)C1 (stereo not drawn) | -1.169 | 4.668 | 13.64
COc1ccc2[nH]cc(C(=O)N3C[C@@H](O)[C@H](N4CCOCC4)C3)c2c1 | 2.331 | 0.1831 | 7.092
Cc1ccc(C(=O)Nc2ccc(N(C)C)cn2)n1C | 4.509 | 4.221 | 23.21
COc1ncccc1CNC(=O)c1c[nH]c(=O)c(Br)c1 | -4.72 | 7.221 | 15.87
CC(C)NC(=O)CCNC(=O)Nc1ccc(-n2cncn2)c(F)c1 | 7.417 | 0.467 | 0
O=C(CCc1cc2n(n1)CCCN(C(=O)c1ccccn1)C2)NC1CC1 | 1.266 | 5.265 | 20.19
O=C(c1cc(C2CC2)on1)N1CCCC(n2cccn2)C1 (stereo not drawn) | 4.474 | -2.47 | 10.19

The first 7 entries again:

Compound	CoaBC	PfKRS1	LiHisRS
COCCN(C)C(=O)c1nc2c(s1)CCCN2C	6.318	5.601	24.56
Cc1ccc(C(=O)NS(=O)(=O)c2cc(Cl)ccc2Cl)c(=O)[nH]1	8.094	2.79	18.46
Cc1ncc2c(n1)CN(Cc1nnc(-c3ccccc3)o1)CC2	-3.611	0.6605	23.85
O=C(NCCOc1ncc(Cl)cc1Cl)NCc1ccncc1	2.2	1.416	38.71
CC(=O)N1C[C@@H]2CC[C@H](C1)N(C(=O)CCc1n[nH]c3c1CCCC3)C2	-3.023	4.721	17.74
COCCOc1cccc(C(=O)N2CCCC(n3cccn3)C2)c1 (stereo not drawn)	-0.2635	-5.536	-3.125
Cc1nnc(SC2CCN(c3sccc3C#N)C2=O)[nH]1 (stereo not drawn)	5.124	1.318	12.24